Laboratory results as given in publication PMC9693918, “May Sulfonamide Inhibitors of Carbonic Anhydrases from Mammaliicoccus sciuri Prevent Antimicrobial Resistance Due to Gene Transfer to Other Harmful Staphylococci?” (International Journal of Molecular Sciences, 2022).

Biological target: T1, MscCAγ (M. sciuri γ-CA) (Mammaliicoccus sciuri, UniProt A0AB37HNM1)
T1 construct: gene OWO77_11715
T1 sequence (A0AB37HNM1 1-169): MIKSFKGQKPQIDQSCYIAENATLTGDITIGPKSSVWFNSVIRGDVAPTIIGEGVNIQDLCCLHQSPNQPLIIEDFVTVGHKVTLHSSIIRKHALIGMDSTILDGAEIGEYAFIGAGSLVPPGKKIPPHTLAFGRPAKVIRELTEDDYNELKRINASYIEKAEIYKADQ
Experiment: stopped-flow CO2 hydration assay, phenol red
Type: biochemical
Text: stopped-flow CO2 hydration assay, phenol red on MscCAγ (M. sciuri γ-CA)

CC(=O)Nc1nnc(S(N)(=O)=O)s1 [AAZ, acetazolamide]
Ki: 245 nM

CCN[C@H]1C[C@H](C)S(=O)(=O)c2sc(S(N)(=O)=O)cc21 [DZA]
Ki: 43.8 nM
